# The inconclusive results got no clear call from the source; some entries with a clear call stand among them for comparison. Potencies of inconclusive entries are doubtful fits and often do not repeat. Activity calls are given as the source filed them. Rule for the calls: active = hit-call score of the fitted dose curve at least 0.9, where 1 is the maximum; inconclusive = response in the unintended direction; inactive = score below 0.9.
# By UniProt entry, the sequences of proteins in these tests, tags left out. Where a name states a change or a piece, a line headed by the entry shows the natural chain unless it says otherwise.
# UniProt P06213, whole entry, looked up: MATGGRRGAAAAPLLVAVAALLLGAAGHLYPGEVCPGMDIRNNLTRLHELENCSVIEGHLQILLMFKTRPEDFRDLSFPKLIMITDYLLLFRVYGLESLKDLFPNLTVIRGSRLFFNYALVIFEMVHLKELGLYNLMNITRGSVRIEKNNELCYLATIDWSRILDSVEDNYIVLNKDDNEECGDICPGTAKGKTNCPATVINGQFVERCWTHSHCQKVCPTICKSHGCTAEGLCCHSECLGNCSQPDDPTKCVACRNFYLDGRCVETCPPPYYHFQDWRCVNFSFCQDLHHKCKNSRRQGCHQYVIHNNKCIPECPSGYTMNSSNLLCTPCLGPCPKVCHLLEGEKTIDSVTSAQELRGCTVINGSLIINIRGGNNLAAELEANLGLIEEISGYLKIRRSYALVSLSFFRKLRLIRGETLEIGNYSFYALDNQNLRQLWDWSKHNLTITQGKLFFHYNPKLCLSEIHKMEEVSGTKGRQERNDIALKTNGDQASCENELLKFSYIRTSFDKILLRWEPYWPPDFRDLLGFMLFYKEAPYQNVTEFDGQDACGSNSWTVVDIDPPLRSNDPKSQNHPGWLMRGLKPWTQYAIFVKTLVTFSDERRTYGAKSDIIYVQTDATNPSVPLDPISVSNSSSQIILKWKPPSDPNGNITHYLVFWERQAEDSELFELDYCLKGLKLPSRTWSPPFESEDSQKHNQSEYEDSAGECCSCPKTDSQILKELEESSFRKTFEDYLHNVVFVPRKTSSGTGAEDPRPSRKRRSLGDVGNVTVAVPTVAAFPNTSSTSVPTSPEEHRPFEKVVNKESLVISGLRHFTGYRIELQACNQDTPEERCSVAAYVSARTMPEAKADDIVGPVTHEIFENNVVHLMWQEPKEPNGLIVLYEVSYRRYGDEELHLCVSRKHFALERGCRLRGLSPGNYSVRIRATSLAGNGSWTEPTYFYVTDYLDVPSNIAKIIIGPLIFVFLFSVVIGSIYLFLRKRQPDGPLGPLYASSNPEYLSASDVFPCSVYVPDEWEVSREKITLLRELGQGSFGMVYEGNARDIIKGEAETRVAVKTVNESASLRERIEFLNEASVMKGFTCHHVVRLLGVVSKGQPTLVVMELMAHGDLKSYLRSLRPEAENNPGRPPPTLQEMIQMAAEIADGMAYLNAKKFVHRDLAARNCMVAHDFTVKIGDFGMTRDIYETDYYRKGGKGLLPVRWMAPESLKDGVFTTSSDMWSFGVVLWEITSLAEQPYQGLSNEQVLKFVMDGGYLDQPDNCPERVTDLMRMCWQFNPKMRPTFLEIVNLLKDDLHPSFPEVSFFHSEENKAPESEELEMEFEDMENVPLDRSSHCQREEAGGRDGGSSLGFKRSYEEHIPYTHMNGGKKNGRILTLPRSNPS
# UniProt O60674: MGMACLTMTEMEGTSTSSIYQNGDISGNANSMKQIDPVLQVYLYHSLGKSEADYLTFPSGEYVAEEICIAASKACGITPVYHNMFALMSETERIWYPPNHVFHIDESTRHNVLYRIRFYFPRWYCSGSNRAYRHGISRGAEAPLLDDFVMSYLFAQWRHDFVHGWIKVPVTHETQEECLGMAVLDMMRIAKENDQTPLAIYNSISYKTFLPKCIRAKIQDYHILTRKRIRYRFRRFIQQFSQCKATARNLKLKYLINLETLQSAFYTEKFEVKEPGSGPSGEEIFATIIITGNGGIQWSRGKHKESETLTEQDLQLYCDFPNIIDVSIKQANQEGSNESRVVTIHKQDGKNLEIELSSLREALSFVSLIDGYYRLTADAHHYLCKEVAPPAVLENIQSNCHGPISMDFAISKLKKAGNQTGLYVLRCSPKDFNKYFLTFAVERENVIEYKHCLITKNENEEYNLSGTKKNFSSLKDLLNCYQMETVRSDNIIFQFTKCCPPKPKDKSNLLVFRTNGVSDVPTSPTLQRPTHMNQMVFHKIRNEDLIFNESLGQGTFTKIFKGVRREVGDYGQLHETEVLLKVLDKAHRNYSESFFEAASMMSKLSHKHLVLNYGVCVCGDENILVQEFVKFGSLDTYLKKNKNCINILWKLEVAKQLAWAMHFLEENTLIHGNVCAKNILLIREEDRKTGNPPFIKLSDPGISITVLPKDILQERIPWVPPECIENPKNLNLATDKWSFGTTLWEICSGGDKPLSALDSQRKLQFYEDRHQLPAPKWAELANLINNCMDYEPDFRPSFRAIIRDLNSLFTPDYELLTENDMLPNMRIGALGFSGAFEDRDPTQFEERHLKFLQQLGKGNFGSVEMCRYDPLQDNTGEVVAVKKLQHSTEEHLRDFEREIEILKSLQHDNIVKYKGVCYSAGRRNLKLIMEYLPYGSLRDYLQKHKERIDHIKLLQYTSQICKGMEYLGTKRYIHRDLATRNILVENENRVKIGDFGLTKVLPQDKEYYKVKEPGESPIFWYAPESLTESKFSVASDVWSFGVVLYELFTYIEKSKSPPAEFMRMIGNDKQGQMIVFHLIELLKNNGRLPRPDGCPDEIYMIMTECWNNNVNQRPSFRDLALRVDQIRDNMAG
# Target: human Insulin Receptor (InsR), INSR (gene 3643) (UniProt P06213)
# Test: NVS_ENZ_hInsR: NovaScreen (NVS) Enzymatic Assay for human Insulin Receptor (InsR) (AID 2283168)
# In short: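 Cell-free enzyme assay read 1 h post-dose by fluorescence after substrate/product mobility-shift separation. Duplicate 25 uM primary screen, then singleton concentration-response up to 50 uM for compounds passing threshold; loss of signal vs DMSO.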
Compound,AC50,outcome
COC(=O)c1c(Cl)c(Cl)c(C(=O)OC)c(Cl)c1Cl,inconclusive: 0.0919 µM,–
O=C(O)Cc1cc(I)c(Oc2cc(I)c(O)c(I)c2)c(I)c1,inconclusive: 1.07 µM,–
CCCOc1ccc(S(=O)(=O)N2CCN(CC)CC2)cc1-c1nc2c(CC)n(Cc3ccccn3)nc2c(=O)[nH]1,–,inactive

# Target: human Janus Kinase 2 (Jak2), JAK2 (gene 3717) (UniProt O60674)
# Test: NVS_ENZ_hJak2: NovaScreen (NVS) Enzymatic Assay for human Janus Kinase 2 (Jak2) (AID 2283169)
# In short: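 Single-point duplicate screen at 25 uM, with hits run in concentration series to a 50 uM top dose. Substrate-product separation by mobility shift with fluorescence detection, 1 h post-dosing; DMSO baseline.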
row,Compound,AC50
1,N[C@@H](Cc1cc(I)c(Oc2ccc(O)c(I)c2)c(I)c1)C(=O)O,active: 5.49 µM
2,Oc1cc2ccccc2c2ccccc12,active: 25 µM
3,c1ccc2[nH]c(-c3cscn3)nc2c1,active: 2.27 µM
4,O=C(c1ccc(OCCN2CCCCC2)cc1)c1c(-c2ccc(O)cc2)sc2cc(O)ccc12,active: 25 µM
5,CCOC(N)=O,inconclusive: 25 µM
6,Cc1ccccc1Cl,inconclusive: 25 µM
7,CCCOc1ccc(S(=O)(=O)N2CCN(CC)CC2)cc1-c1nc2c(CC)n(Cc3ccccn3)nc2c(=O)[nH]1,inconclusive: 43.3 µM

# In a second layout: 2 of the compounds above
row	Compound	AC50
5	CCOC(N)=O	inconclusive: 25 µM
6	Cc1ccccc1Cl	inconclusive: 25 µM

# — PubChem BioAssay (EPA / NIEHS)
